Results are given in words; binding and its absence hold for the method and conditions named. Binding seen in cells or lysates may run through a third protein. These calls come from enrichment with a bait or labelling near it, and not all partners need be listed.
Target: T1, recombinant human serum amyloid A (SAA1) (human) (UniProt P0DJI8)
T1 sequence: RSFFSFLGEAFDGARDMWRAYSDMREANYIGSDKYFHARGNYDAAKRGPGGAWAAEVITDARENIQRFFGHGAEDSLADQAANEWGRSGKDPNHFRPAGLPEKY
Test: affinity purification with mass spectrometry; only the target purified

By UniProt entry, the sequences of proteins in these tests, tags left out.
UniProt P9WPU7: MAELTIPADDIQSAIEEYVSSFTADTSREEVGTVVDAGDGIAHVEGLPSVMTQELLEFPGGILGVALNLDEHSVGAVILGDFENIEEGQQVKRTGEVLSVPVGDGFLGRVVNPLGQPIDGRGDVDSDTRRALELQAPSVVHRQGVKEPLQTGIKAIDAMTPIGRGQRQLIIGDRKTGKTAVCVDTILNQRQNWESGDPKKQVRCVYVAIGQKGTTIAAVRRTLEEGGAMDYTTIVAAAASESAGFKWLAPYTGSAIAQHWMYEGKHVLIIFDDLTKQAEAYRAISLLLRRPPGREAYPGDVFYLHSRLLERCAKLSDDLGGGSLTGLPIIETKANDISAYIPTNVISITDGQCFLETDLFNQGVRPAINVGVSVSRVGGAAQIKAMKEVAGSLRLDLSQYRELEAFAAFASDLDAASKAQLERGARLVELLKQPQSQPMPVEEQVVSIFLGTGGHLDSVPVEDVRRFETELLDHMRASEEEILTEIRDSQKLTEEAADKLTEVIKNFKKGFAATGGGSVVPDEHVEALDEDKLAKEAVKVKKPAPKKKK

With “AtpA (Rv1308; probable ATP synthase alpha chain AtpA), native, from Mtb whole-cell extract (from UniProt P9WPU7 1-549)” the binding was “binds”.
